# Source: PubChem BioAssay AID1347076 (National Center for Advancing Translational Sciences (NCATS), 2019)
# Screen size: about 400,000 compounds; about 13,000 (3.2%) were called active. This list was built around the results that the source calls inconclusive (neither active nor inactive); the mix of calls is not that of the screen. Calls follow the shape of the dose curve; as a rule, active = well fitted cell-killing curve with a large enough effect; inconclusive = small, poorly fitted or top-dose-only effect, or effect the other way; inactive = flat fitted curve, though single readings scatter. Potencies beside an inconclusive call are fits to weak or partial responses and may not hold up.
# Assay: qHTS assay for MDR1-selective chemotherapeutics: Primary screen using the drug-selected MDR subline cells KB-V1; also: nearly all actives have a fitted effect of over 60% in size
# Details: KB-V1 MDR cells viability, CellTiter-Glo, 72 h; activity change, negative = cytotoxicity: at 46.1 µM (top of the series)
# Summary of the method: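 qHTS viability screen in drug-selected KB-V1 MDR cells: 72 h compound treatment at 37 degrees C, ATP luminescence end point.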
# % is scaled to controls: 0 for no effect and ±100 for the full control effect; potency is read from the fitted curve at half-maximal effect.
SMILES,Potency,"activity change, negative = cytotoxicity"
COc1ccc(OCCNC(=O)/C=C/c2ccc([N+](=O)[O-])cc2)cc1,"inconclusive: 16.4 µM [cytotoxic, single point]",
CSCC[C@H](NC(=O)[C@@H]1Cc2ccccc2CN1)C(=O)Nc1cccc(C)c1,"inconclusive: 20.6 µM [rising, partial curve, poor fit]",
CC(=O)Nc1ccc(OCC(=O)NCc2ccccc2)cc1,inactive,
CC(C(=O)NC1CCCC1)N(C(=O)c1snc(C(N)=O)c1N)c1ccc2c(c1)OCCO2 (stereo not given),active: 16.4 µM,
CCOC(=O)C1CCCN(S(=O)(=O)c2ccc(F)c(C(=O)Nc3ccc(F)c(F)c3)c2)C1 (stereo not given),"inconclusive: 29.1 µM [cytotoxic, single point]",
CCOC(=O)N1CCN(S(=O)(=O)c2ccc(C(=O)NNc3nc4c(C)cc(C)cc4s3)cc2)CC1,"inconclusive: 29.1 µM [cytotoxic, single point]",
Cc1ccc(NC(=O)C2(C)CCCN2C)cc1C (stereo not given),"inconclusive: 18.4 µM [rising, single point]",
CCCN1CCC(NC(=O)CC2C(=O)NCCN2Cc2ccccc2C)CC1 (stereo not given),"inconclusive: 4.61 µM [rising, full curve, poor fit]",
COc1ccc(N(C)S(=O)(=O)c2cccc(C(=O)N(C)Cc3ccc(C)o3)c2)cc1,"inconclusive: 8.2 µM [cytotoxic, partial curve]",
COc1ccccc1NS(=O)(=O)c1cc(NC(=O)CNC(=O)c2cc(C)cc(C)c2)ccc1C,active: 18.4 µM,
CCc1ccc(CNC(=O)C2CCCN(c3nc4ccccc4o3)C2)cc1 (stereo not given),active: 14.6 µM,
CCOc1ccc(-c2nc(-c3ccc(OC)cc3)no2)cc1OCC,active: 13 µM,
Cc1ccc(C)c(-c2[nH]ncc2CN2CCCC(CO)(Cc3ccccc3C)C2)c1 (stereo not given),"inconclusive: 7.31 µM [cytotoxic, partial curve]",
Cc1[nH]nc2c1C(c1ccccn1)N(c1ccc(Br)cc1)C2=O (stereo not given),active: 18.4 µM,
CCc1ccccc1NC(=O)c1ccc([N+](=O)[O-])s1,"inconclusive: 29.1 µM [cytotoxic, single point]",
Cc1ccc(CN2CCC(n3nccc3NC(=O)CCOc3ccccc3)CC2)cc1C,"inconclusive: 18.4 µM [cytotoxic, single point]",
CCc1ccccc1NC(=O)CNC(=O)c1cn(Cc2ccccc2)nc1-c1cccnc1,inactive,
Cc1ccc(NC(=O)c2ccco2)c(NC(=O)c2ccc(Cl)cc2)c1,"inconclusive: 8.2 µM [cytotoxic, partial curve]",
O=C(O)CSCC(=O)N(Cc1ccccc1)c1nc(-c2ccccc2)c(-c2ccccc2)s1,inactive,
O=C(NNC(=O)C(c1ccccc1)c1ccccc1)c1ccccn1,"inconclusive: 3.26 µM [cytotoxic, partial curve]",
CC(=O)c1ccc(OC(=O)COc2ccccc2Cl)cc1,"inconclusive: 18.4 µM [rising, single point]",
Cc1nc(N)sc1-c1csc(Nc2cc(N(C)C)ccc2Cl)n1,"inconclusive: 29.1 µM [rising, partial curve, poor fit]",
COc1ccc(NC(=O)CSc2nc(-c3cccs3)cc(C(F)(F)F)n2)cc1OC,"inconclusive: 29.1 µM [cytotoxic, single point]",
CC(OC(=O)c1ccc2c(=O)n3c(nc2c1)CCCCC3)C(=O)Nc1ccc(F)cc1Cl (stereo not given),"inconclusive: 32.6 µM [cytotoxic, partial curve, poor fit]",

SMILES,Potency,"activity change, negative = cytotoxicity"
CCN1CCN(C(=S)c2ccc(Cl)c(Cl)c2)CC1,active: 14.6 µM,
COc1ccc(-c2cc(C(=O)O)n(Cc3ccccc3)n2)cc1,"inconclusive: 5.8 µM [rising, full curve, poor fit]",
O=S(=O)(c1ccc(SCCOc2ccc(Br)cc2)nc1)N1CCCC1,inactive,
CCOC(=O)c1c(S(=O)(=O)NCC(=O)Nc2ccc(F)cc2F)c(C)n(C)c1C,,inconclusive: -17.6%
O=C(OCc1ccccc1)N1CCOCCOCCN(C(=O)OCc2ccccc2)CCOCCOCC1,"inconclusive: 10.3 µM [cytotoxic, partial curve, poor fit]",
CC(C)C(NC(=S)Nc1ccccc1)C(=O)O (stereo not given),inactive,
Cc1ccc(-c2nn3nnnc3c3ccccc23)cc1C,"inconclusive: 6.51 µM [cytotoxic, partial curve]",
COc1cc(/C=N/N=C/c2cc(OC)c(O)c(OC)c2)cc(OC)c1O,inactive,
Cc1ccc(C)c(N2CCN(C(=O)c3ccc(NC(=O)c4nsc5ccccc45)cc3)CC2)c1,inactive,
Nc1n[nH]c(N)c1N=Nc1ccc(F)cc1,"inconclusive: 29.1 µM [rising, single point]",
COc1ccccc1CNC(=S)NC1CCCCC1,"inconclusive: 16.4 µM [cytotoxic, single point]",
Oc1c(CN2CCCCC2)cc(Br)c2cccnc12,"inconclusive: 29.1 µM [cytotoxic, single point]",
Cc1ccc(OCCC(=O)Nc2ccc(F)c(F)c2)cc1,"inconclusive: 18.4 µM [cytotoxic, single point]",
CCCOc1ccc(/C=N/NC(=O)CSCc2ccc([N+](=O)[O-])cc2)cc1OCC,active: 16.4 µM,
O=C(Nc1cccc(F)c1)C1CCCN(S(=O)(=O)c2cnc[nH]2)C1 (stereo not given),"inconclusive: 11.6 µM [rising, partial curve]",
CCOC(=O)c1c(C)[nH]c(C)c1S(=O)(=O)N(C)CC(=O)N(C)Cc1ccccc1,"inconclusive: 20.6 µM [rising, single point]",
Cc1ccc(C(=O)Nn2cnc3scc(-c4cccs4)c3c2=O)c(O)c1,"inconclusive: 29.1 µM [cytotoxic, single point]",
CC(Cc1ccccn1)NC(=O)c1ccc(OC2CCN(CCc3ccccc3)CC2)cc1 (stereo not given),"inconclusive: 2.31 µM [cytotoxic, partial curve, poor fit]",
Cc1ccccc1-n1c(C)nnc1SC(C)C(=O)NCC1CCCO1 (stereo not given),"inconclusive: 29.1 µM [rising, single point]",
COc1ccc(NC(=O)CSCc2cc(=O)n3nc(C4CC4)sc3n2)cc1,"inconclusive: 0.411 µM [rising, full curve, poor fit]",
CCOc1ccc(NC(=O)c2ccc(OCC3CCCO3)cc2)cc1S(=O)(=O)N(CC)CC (stereo not given),active: 2.59 µM,
CS(=O)(=O)c1ccc(Nc2nc(C(N)c3ccccc3Cl)cs2)cc1 (stereo not given),"inconclusive: 23.1 µM [cytotoxic, partial curve]",
CCOc1ccccc1NC(=O)Nc1ccccn1,"inconclusive: 29.1 µM [rising, single point]",
OCCN(Cc1ccccc1)CC(O)COc1ccc2c(c1)OCO2 (stereo not given),inactive,

# Six entries from above, reformatted:
SMILES	Potency	activity change, negative = cytotoxicity
CCN1CCN(C(=S)c2ccc(Cl)c(Cl)c2)CC1	active: 14.6 µM	
COc1ccc(-c2cc(C(=O)O)n(Cc3ccccc3)n2)cc1	inconclusive: 5.8 µM [rising, full curve, poor fit]	
Oc1c(CN2CCCCC2)cc(Br)c2cccnc12	inconclusive: 29.1 µM [cytotoxic, single point]	
CCOC(=O)c1c(C)[nH]c(C)c1S(=O)(=O)N(C)CC(=O)N(C)Cc1ccccc1	inconclusive: 20.6 µM [rising, single point]	
COc1ccc(NC(=O)CSCc2cc(=O)n3nc(C4CC4)sc3n2)cc1	inconclusive: 0.411 µM [rising, full curve, poor fit]	
CS(=O)(=O)c1ccc(Nc2nc(C(N)c3ccccc3Cl)cs2)cc1 (stereo not given)	inconclusive: 23.1 µM [cytotoxic, partial curve]	

# More entries

SMILES,Potency,"activity change, negative = cytotoxicity"
CC(C)(C)c1ccc(NC(=O)C2CCCN(c3cnccn3)C2)cc1 (stereo not given),inactive,
CCC(=O)N(Cc1cc2ccccc2[nH]c1=O)c1ccc(OC)cc1,"inconclusive: 29.1 µM [cytotoxic, partial curve, poor fit]",
CC(OC(=O)c1cnccn1)C(=O)Nc1nc(-c2cccc([N+](=O)[O-])c2)cs1 (stereo not given),,inconclusive: -8.61%
COCCn1c(SCC(=O)Nc2ccc(Cl)cn2)nc2ccccc21,"inconclusive: 32.6 µM [cytotoxic, single point]",
Cc1onc(-c2ccccc2)c1C(=O)OCc1nnc(-c2ccc([N+](=O)[O-])cc2)o1,active: 14.6 µM,
O=C(CC(Sc1ccccc1)c1cccs1)c1ccco1 (stereo not given),inactive,
CCN(CC(=O)NCc1cccs1)C(=O)CCOc1ccccc1C,"inconclusive: 20.6 µM [cytotoxic, single point]",
CSc1ccc(CCNC(=O)c2cnc3c(C)cccn3c2=O)cc1,inactive,
COc1ccc(-c2cn3cc(C)ccc3n2)cc1OC,active: 6.51 µM,
COc1ccc(C=O)cc1COc1ccc(C)cc1[N+](=O)[O-],inactive,
CCCc1cc(-c2n[nH]c(=S)n2-c2cccc(C)c2)cs1,"inconclusive: 18.4 µM [cytotoxic, single point]",
COc1cc(CCCN2C(=S)NC[C@@H]2c2ccccc2)cc(OC)c1OC,,inconclusive: 0.131%
CCC(OC(=O)c1cc2sccc2n1C)C(=O)NCC1CCCO1 (stereo not given),active: 23.1 µM,
COc1ccc(C2C(C(=O)c3ccc(C)o3)=C(O)C(=O)N2Cc2cccnc2)cc1OC (stereo not given),"inconclusive: 29.1 µM [rising, single point]",
CC[C@]12C(=O)N(C)C[C@H]([C@@H]3C(=O)N(Cc4ccccc4)C(=O)[C@@H]31)N2C(=O)c1ccc(Br)cc1,,inconclusive: -10.5%
Cc1noc(C(=O)Nc2sc3c(c2C#N)CCC3)c1Cl,inactive,
COCCNc1ccc([N+](=O)[O-])cc1C(=O)Nc1cccc(C)n1,"inconclusive: 16.4 µM [cytotoxic, single point]",
C=CCn1c(SCc2ccc(Cl)cc2)nc2cc(C(=O)N3CCC(C(N)=O)CC3)ccc2c1=O,active: 25.9 µM,
CCCCNC(=O)COc1ccccc1C(=O)c1cc(C#N)c(=O)n(CCOC)c1,"inconclusive: 16.4 µM [cytotoxic, partial curve, poor fit]",
Cc1ccc(-n2nnnc2CNC(=O)C(=O)c2c[nH]c3ccccc23)cc1C,inactive,
Cc1ccc2c(NCc3ccco3)nc(NC(C)C)nc2c1,"inconclusive: 29.1 µM [cytotoxic, single point]",
CC(=O)c1cccc(-n2c(=O)c3c4c(sc3n(CC(=O)c3ccccc3)c2=O)CN(C(C)=O)CC4)c1,"inconclusive: 7.31 µM [rising, partial curve, poor fit]",
